Values joined by “and” are separate entries in the source; they are usually repeats but may differ in a detail not shown here. Equal values may be shown once. The list shows a part of the results. Shown are side measurements of this screen, not its main read-out; they come without a call. The list favours compounds with an active or inconclusive main result. Potencies come from curve fits of mixed quality, noted in brackets.

The experiment is described as follows: Cell signaling CRE-BLA (Fsk stim). Particulars: CHO CRE-bla reporter (cAMP response element driving beta-lactamase), forskolin EC10, beta-lactamase ratio; measured here: 460 nm blue channel. Put shortly:
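Using CellSensor CRE-bla CHO cells in Opti-MEM with 0.5% dialyzed FBS, compounds were titrated with EC10 NKH 477 for 3 h at 37 °C. CCF4 ratio (460/530 nm) gave %Activity; AC50 derived.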
The AC50 is the concentration giving half of the maximal activity seen. As for `Cc1nc2cnc(N(C)C)nc2n(C[C@H]2CCCO2)c1=O`, the AC50 was 12.6 µM [rising, partial curve].
Take `COCCN1C(=O)C(CC(=O)Nc2ccc(C(=O)O)cc2)SC1=Nc1ccccc1` (stereo not drawn): the AC50 was 10 µM [rising, partial curve, poor fit].
The same measure for `COc1nc(OCCNC(=O)Nc2ccccc2)nc(N(C)C)n1`: 12.6 µM [rising, single point].
For `CC(=O)c1cccc(NC(=O)Cc2cccs2)c1`, the half-maximal activity concentration (AC50) is 0.316 µM [falling, partial curve].
As for `COc1ccc(NC(=O)CSc2[nH]c(=O)cc(C)c2C#N)cc1OC`, the concentration at half-maximal activity (AC50) is 10 µM [rising, partial curve].
For `O=C(NCc1ccco1)c1cc2c(s1)CCCCC2`, the AC50 was 12.6 µM [falling, single point].
Consider `Cn1c(=O)c(-c2cccs2)nc2cnc(OCc3ccccc3)nc21`, for which the concentration at half-maximal activity (AC50) was 15.8 µM [rising, partial curve].
As for `Cc1ccc(NC(=O)C2C(=O)N(CCO)C3(C)CC2c2ccccc2O3)cc1` (stereo not drawn), the AC50 was 0.398 µM [falling, full curve, poor fit].
On to `CCOc1ccc(NC(=O)N(C2CCCCC2)C(C)c2ccncc2)cc1` (stereo not drawn), for which the concentration at half-maximal activity (AC50) is 25.1 µM [falling, single point].
In the case of `CN1CCN(c2ncnc3ccc(-c4ccc5c(c4)OCO5)cc23)CC1`, the half-maximal activity concentration (AC50) is 10 µM [rising, single point].
Turning to `O=c1[nH]c(NC2CCCCC2)nnc1Cc1ccccc1`, the half-maximal activity concentration (AC50) was 10 µM [falling, partial curve].
Consider `CCCCOC(=O)CSc1nnc(-c2cc(OC)c(OC)c(OC)c2)o1`, for which the AC50 is 15.8 µM [rising, single point].
Regarding `CC(Sc1ncc(C#N)c(N)n1)C(=O)Nc1ccccc1` (stereo not drawn), the half-maximal activity concentration (AC50) is 25.1 µM [falling, single point].
For the molecule `CCc1cc2c(=O)n(Cc3ccco3)c(SCc3c(C)noc3C)nc2s1`, the concentration at half-maximal activity (AC50) is 0.02 µM [falling, full curve, poor fit].
The same measure for `c1ccc2c(c1)ccc1cc3c(ccc4ccccc43)cc12`: 6.31 µM [rising, full curve]; for `CN(C(=O)COc1cc(=O)n(C)c2ccccc12)c1cccc(Cl)c1`: 25.1 µM [rising, single point].
With `COCCOC(=O)C1=C(C)NC2=C(C(=O)CC(C)(C)C2)C1c1ccc2c(c1)OCO2` (stereo not drawn), the concentration at half-maximal activity (AC50) was 10 µM [rising, single point].
For `O=C(C1CCCN(S(=O)(=O)c2cccs2)C1)N1CCc2ccccc2C1` (stereo not drawn), the AC50 was 0.0158 µM [falling, full curve, poor fit].
On to `O=C(NCc1ccccn1)Nc1cccc(NC(=O)NCc2ccccn2)c1`, for which the AC50 was 10 µM [rising, single point].
The same measure for `c1ccc2c(-c3nc(-c4ccncc4)no3)cccc2c1`: 12.6 µM [rising, partial curve, poor fit]; for `COC(=O)Nc1nc2ccc(C(=O)c3cccs3)cc2[nH]1`: 1.26 µM [rising, full curve] and 501 nM [rising, full curve] and 100 nM [rising, full curve].
As to `Cc1cc(C)cc(Nc2cc(C)nc3nc(C)nn23)c1`, the AC50 was 7.94 µM [rising, partial curve].
As for `CC1CCN(c2oc(-c3cccc4ccccc34)nc2C#N)CC1`, the half-maximal activity concentration (AC50) is 12.6 µM [rising, partial curve].
For the molecule `O=c1c2ccccc2nc(-c2ccco2)n1CCCn1ccnc1`, the AC50 was 25.1 µM [rising, single point].
The same measure for `CCC1Cc2c(nc3c4c(nc(N5CCOCC5)c(C#N)c24)NC(C)=N3)O1` (stereo not drawn): 12.6 µM [rising, partial curve].
Turning to `Cc1ccc(NC(=O)CSc2nc3c(c(=O)[nH]2)CCC3)cc1C`, the AC50 was 10 µM [rising, partial curve].
Turning to `Cc1cc(C)c2c(CN3CCN(C/C=C/c4ccccc4)CC3)cc(=O)oc2c1`, the AC50 was 0.398 µM [rising, full curve, poor fit].
Take `C=CCn1c(SCC(=O)/C(C#N)=C(\C)N)nnc1C1CCCCC1`: the concentration at half-maximal activity (AC50) was 0.316 µM [falling, partial curve].
Turning to `O=C(CNCC1CCCO1)Nc1ccccc1-n1cccc1` (stereo not drawn), the AC50 is 0.00794 µM [falling, full curve, poor fit].
For the molecule `COc1ccc(C2/C(=C(\O)c3ccc4c(c3)OCCO4)C(=O)C(=O)N2CCCN(C)C)c(OC)c1` (stereo not drawn), the concentration at half-maximal activity (AC50) is 3.98 µM [falling, partial curve].
In the case of `Clc1cccc(-c2nnc(SCc3nc4ccccc4[nH]3)n2Cc2ccco2)c1`, the concentration at half-maximal activity (AC50) was 7.94 µM [rising, partial curve].
For the molecule `CCOCCCNc1nc2c([nH]1)c(=O)n(C)c(=O)n2C`, the AC50 is 3.98 µM [falling, single point].
Turning to `CCCc1ccc(OCC(O)CN2CCN(c3ccccc3)CC2)cc1` (stereo not drawn), the AC50 was 12.6 µM [falling, partial curve].
For `C=CCOc1nc2c(c(=O)n(C)c(=O)n2C)n1C`, the AC50 is 0.398 µM [rising, partial curve, poor fit].
Turning to `C=C1C(=O)C=C2CN(C(=O)c3ccccc3)[C@@](Cc3ccc(OC)cc3)(C(=O)OC)[C@@H]12`, the AC50 is 0.316 µM [falling, full curve].
As for `CCOC(=O)N/C(N)=N/c1nc2ccccc2s1`, the half-maximal activity concentration (AC50) is 0.398 µM [rising, partial curve].
For `O=C(c1ccco1)N1CCN(C(=O)N2c3ccccc3Sc3ccccc32)CC1`, the AC50 was 1 µM [rising, partial curve].
The same measure for `COc1cccc(N(CC(=O)NC(C)c2ccccc2)S(C)(=O)=O)c1` (stereo not drawn): 0.00794 µM [falling, full curve, poor fit]; for `CN1C(=O)NC(c2ccccc2)C2=C1CN(c1cccc(C(F)(F)F)c1)C2=O` (stereo not drawn): 10 µM [rising, single point]; for `c1ccc(COn2nnc3ccccc32)c(COn2nnc3ccccc32)c1`: 12.6 µM [rising, single point].
`CC1(C)OC(=O)C(=C2CCCN2)C(=O)O1`: the concentration at half-maximal activity (AC50) is 0.501 µM [rising, full curve].
Regarding `COCCNC(=O)c1c(N)n(-c2cccc(C)c2)c2nc3ccccc3nc12`, the AC50 is 10 µM [rising, partial curve].
Turning to `CN(C)c1ncc2nc(-c3ccc(F)cc3)c(=O)n(CCc3ccccc3)c2n1`, the half-maximal activity concentration (AC50) is 3.98 µM [rising, partial curve].

The record behind these values is PubChem BioAssay AID662 (National Center for Advancing Translational Sciences (NCATS), 2007).
